These are yes or no findings as the source states them, for the method shown. Binding seen in cells or lysates may run through a third protein. Some entries that bind do so weakly or less than the wild type. Tags and fused reporters may be left off the sequences shown.

Assay [1] concerns the target T1, Smith-Magenis syndrome chromosome region candidate 8 (SMCR8), endogenous (human (endogenous in HEK293T)) (UniProt Q8TEV9).
T1 sequence: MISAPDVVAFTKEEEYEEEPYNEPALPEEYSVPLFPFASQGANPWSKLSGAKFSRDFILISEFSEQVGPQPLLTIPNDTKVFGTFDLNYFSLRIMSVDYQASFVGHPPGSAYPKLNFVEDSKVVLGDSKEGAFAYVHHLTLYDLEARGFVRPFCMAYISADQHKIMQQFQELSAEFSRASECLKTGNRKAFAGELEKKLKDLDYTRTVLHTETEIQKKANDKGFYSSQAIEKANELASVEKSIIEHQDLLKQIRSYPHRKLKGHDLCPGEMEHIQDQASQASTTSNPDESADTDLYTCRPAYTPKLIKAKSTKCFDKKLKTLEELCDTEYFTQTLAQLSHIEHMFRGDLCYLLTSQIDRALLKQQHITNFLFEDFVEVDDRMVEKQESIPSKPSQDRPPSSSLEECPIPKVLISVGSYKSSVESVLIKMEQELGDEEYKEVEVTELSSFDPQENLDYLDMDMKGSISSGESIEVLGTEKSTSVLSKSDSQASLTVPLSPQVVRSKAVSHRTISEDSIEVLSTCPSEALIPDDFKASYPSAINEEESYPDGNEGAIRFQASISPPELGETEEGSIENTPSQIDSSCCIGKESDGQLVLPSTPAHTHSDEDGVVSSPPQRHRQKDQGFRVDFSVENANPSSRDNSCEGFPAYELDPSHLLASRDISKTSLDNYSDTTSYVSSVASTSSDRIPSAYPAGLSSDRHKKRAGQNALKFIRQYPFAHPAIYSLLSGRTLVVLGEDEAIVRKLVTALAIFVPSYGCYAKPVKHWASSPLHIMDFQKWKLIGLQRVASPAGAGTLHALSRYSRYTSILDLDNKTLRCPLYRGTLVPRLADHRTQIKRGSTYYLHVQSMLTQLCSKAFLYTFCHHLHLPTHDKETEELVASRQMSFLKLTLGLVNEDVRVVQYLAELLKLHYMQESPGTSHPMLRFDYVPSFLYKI
Briefly: co-IP; lysates of HEK293T cells transfected with C9orf72-Flag, anti-SMCR8 antibody and protein A Sepharose beads, control IgG, immunoblot.

In assay [2] the target is T2, Flag-SMCR8 (UniProt Q8TEV9).
T2 sequence: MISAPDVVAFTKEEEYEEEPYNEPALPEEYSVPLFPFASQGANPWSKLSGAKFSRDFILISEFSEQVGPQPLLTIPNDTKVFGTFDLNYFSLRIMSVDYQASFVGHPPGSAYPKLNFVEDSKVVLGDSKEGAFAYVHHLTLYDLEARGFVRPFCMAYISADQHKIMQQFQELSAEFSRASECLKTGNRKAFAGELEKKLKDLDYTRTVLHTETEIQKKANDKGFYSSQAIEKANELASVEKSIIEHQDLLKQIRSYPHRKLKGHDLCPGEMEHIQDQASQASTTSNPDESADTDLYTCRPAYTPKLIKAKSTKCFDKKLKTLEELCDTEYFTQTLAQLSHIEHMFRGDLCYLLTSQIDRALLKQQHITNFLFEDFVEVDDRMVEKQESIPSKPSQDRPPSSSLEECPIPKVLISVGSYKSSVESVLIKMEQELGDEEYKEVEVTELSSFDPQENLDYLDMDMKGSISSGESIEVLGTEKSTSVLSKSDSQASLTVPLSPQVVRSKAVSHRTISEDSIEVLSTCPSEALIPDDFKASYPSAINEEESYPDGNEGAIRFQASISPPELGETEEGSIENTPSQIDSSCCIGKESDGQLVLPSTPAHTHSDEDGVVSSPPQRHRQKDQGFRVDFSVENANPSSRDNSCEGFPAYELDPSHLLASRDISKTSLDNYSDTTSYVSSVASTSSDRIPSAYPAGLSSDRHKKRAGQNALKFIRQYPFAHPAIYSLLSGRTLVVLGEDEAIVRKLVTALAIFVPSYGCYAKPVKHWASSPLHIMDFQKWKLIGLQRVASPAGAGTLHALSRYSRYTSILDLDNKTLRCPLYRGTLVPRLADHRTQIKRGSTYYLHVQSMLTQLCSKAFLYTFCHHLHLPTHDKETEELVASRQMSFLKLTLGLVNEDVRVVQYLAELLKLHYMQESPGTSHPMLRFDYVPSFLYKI
As to the kind of experiment: co-IP; lysates of transfected HEK293T cells in IP buffer (50 mM Tris pH 7.4, 150 mM NaCl, 1% Triton) on Flag-conjugated beads, 2 h at 4°C, 5 washes, immunoblot.

Assay [3] addresses T3, Human C9orf72 Isoform A with a C-terminal Flag tag (human) (UniProt Q96LT7).
T3 sequence: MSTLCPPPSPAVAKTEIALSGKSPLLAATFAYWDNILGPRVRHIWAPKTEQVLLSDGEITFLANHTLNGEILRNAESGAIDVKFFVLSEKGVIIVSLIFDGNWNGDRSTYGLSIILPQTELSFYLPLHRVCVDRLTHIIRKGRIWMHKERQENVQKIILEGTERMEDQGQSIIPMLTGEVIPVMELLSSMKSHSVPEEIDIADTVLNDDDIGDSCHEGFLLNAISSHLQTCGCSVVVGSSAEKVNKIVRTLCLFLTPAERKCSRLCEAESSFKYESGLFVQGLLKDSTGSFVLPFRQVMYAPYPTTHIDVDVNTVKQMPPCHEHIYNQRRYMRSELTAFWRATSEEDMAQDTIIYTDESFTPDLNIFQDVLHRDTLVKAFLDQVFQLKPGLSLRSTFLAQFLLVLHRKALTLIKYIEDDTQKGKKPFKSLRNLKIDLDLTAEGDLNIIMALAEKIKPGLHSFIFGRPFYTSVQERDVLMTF
The assay is described as above.

B1: Human C9orf72 Isoform A with a C-terminal Flag tag (protein, UniProt Q96LT7 1-481)
chain: MSTLCPPPSPAVAKTEIALSGKSPLLAATFAYWDNILGPRVRHIWAPKTEQVLLSDGEITFLANHTLNGEILRNAESGAIDVKFFVLSEKGVIIVSLIFDGNWNGDRSTYGLSIILPQTELSFYLPLHRVCVDRLTHIIRKGRIWMHKERQENVQKIILEGTERMEDQGQSIIPMLTGEVIPVMELLSSMKSHSVPEEIDIADTVLNDDDIGDSCHEGFLLNAISSHLQTCGCSVVVGSSAEKVNKIVRTLCLFLTPAERKCSRLCEAESSFKYESGLFVQGLLKDSTGSFVLPFRQVMYAPYPTTHIDVDVNTVKQMPPCHEHIYNQRRYMRSELTAFWRATSEEDMAQDTIIYTDESFTPDLNIFQDVLHRDTLVKAFLDQVFQLKPGLSLRSTFLAQFLLVLHRKALTLIKYIEDDTQKGKKPFKSLRNLKIDLDLTAEGDLNIIMALAEKIKPGLHSFIFGRPFYTSVQERDVLMTF
In the case of B1, in assay [1], the binding result is listed as “binds”.

B2: C9orf72-V5 (protein, UniProt Q96LT7 1-481)
chain: MSTLCPPPSPAVAKTEIALSGKSPLLAATFAYWDNILGPRVRHIWAPKTEQVLLSDGEITFLANHTLNGEILRNAESGAIDVKFFVLSEKGVIIVSLIFDGNWNGDRSTYGLSIILPQTELSFYLPLHRVCVDRLTHIIRKGRIWMHKERQENVQKIILEGTERMEDQGQSIIPMLTGEVIPVMELLSSMKSHSVPEEIDIADTVLNDDDIGDSCHEGFLLNAISSHLQTCGCSVVVGSSAEKVNKIVRTLCLFLTPAERKCSRLCEAESSFKYESGLFVQGLLKDSTGSFVLPFRQVMYAPYPTTHIDVDVNTVKQMPPCHEHIYNQRRYMRSELTAFWRATSEEDMAQDTIIYTDESFTPDLNIFQDVLHRDTLVKAFLDQVFQLKPGLSLRSTFLAQFLLVLHRKALTLIKYIEDDTQKGKKPFKSLRNLKIDLDLTAEGDLNIIMALAEKIKPGLHSFIFGRPFYTSVQERDVLMTF
Take B2: the binding result in assay [2] is “binds”.

B3: Smith-Magenis syndrome chromosome region candidate 8 (SMCR8), endogenous (protein, UniProt Q8TEV9 1-937)
chain: MISAPDVVAFTKEEEYEEEPYNEPALPEEYSVPLFPFASQGANPWSKLSGAKFSRDFILISEFSEQVGPQPLLTIPNDTKVFGTFDLNYFSLRIMSVDYQASFVGHPPGSAYPKLNFVEDSKVVLGDSKEGAFAYVHHLTLYDLEARGFVRPFCMAYISADQHKIMQQFQELSAEFSRASECLKTGNRKAFAGELEKKLKDLDYTRTVLHTETEIQKKANDKGFYSSQAIEKANELASVEKSIIEHQDLLKQIRSYPHRKLKGHDLCPGEMEHIQDQASQASTTSNPDESADTDLYTCRPAYTPKLIKAKSTKCFDKKLKTLEELCDTEYFTQTLAQLSHIEHMFRGDLCYLLTSQIDRALLKQQHITNFLFEDFVEVDDRMVEKQESIPSKPSQDRPPSSSLEECPIPKVLISVGSYKSSVESVLIKMEQELGDEEYKEVEVTELSSFDPQENLDYLDMDMKGSISSGESIEVLGTEKSTSVLSKSDSQASLTVPLSPQVVRSKAVSHRTISEDSIEVLSTCPSEALIPDDFKASYPSAINEEESYPDGNEGAIRFQASISPPELGETEEGSIENTPSQIDSSCCIGKESDGQLVLPSTPAHTHSDEDGVVSSPPQRHRQKDQGFRVDFSVENANPSSRDNSCEGFPAYELDPSHLLASRDISKTSLDNYSDTTSYVSSVASTSSDRIPSAYPAGLSSDRHKKRAGQNALKFIRQYPFAHPAIYSLLSGRTLVVLGEDEAIVRKLVTALAIFVPSYGCYAKPVKHWASSPLHIMDFQKWKLIGLQRVASPAGAGTLHALSRYSRYTSILDLDNKTLRCPLYRGTLVPRLADHRTQIKRGSTYYLHVQSMLTQLCSKAFLYTFCHHLHLPTHDKETEELVASRQMSFLKLTLGLVNEDVRVVQYLAELLKLHYMQESPGTSHPMLRFDYVPSFLYKI
Take B3: the binding result in assay [3] is “binds”.
